# Experimental data published in PubChem BioAssay AID1671190 (National Center for Advancing Translational Sciences (NCATS), 2021).
# Sequences of proteins named here, by UniProt entry; tags and fusion partners are left off. A change or cut given only in a name is not applied to a line headed by its entry.
# UniProt P18054: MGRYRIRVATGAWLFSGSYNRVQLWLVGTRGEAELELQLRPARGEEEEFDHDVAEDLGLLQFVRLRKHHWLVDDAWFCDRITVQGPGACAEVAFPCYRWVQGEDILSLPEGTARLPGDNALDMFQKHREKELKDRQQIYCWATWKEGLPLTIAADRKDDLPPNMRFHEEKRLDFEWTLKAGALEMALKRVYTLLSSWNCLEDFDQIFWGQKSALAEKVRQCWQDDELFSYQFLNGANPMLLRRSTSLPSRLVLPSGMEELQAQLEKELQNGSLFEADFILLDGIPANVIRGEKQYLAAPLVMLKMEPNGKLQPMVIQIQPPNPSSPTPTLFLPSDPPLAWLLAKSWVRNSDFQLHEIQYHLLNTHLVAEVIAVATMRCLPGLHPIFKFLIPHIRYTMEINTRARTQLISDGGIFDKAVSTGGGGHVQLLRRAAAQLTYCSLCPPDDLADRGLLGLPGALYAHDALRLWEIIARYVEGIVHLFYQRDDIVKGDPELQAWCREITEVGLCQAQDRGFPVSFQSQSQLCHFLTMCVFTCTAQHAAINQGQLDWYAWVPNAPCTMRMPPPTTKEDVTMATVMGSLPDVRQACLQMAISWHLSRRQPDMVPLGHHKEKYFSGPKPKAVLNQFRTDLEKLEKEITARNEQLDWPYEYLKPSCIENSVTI
# Among all 580,000 compounds or so, about 6,100 (1.1%) were called active. The inconclusive results got no clear call from the source; some entries with a clear call stand among them for comparison. Calls come from the whole dose curve; as a rule, active = well fitted inhibition curve with a large enough effect; inconclusive = small, poorly fitted or top-dose-only effect, or another doubt; inactive = no such curve, though single readings can be large or run the other way. Potencies of inconclusive entries are doubtful fits and often do not repeat.
# Target: Polyunsaturated fatty acid lipoxygenase ALOX12 (Homo sapiens) (UniProt P18054)
# Assay: Primary qHTS assay for inhibitors of human arachidonate 12S-lipoxygenase (ALOX12): Round 2
# Conditions: purified 12hLO, xylenol orange hydroperoxide absorbance; activity change, negative = inhibition: at 108 µM (top of the series) unless noted
# Procedure, shortened: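 Hydroperoxide product was detected by ferrous iron/xylenol orange as the 573 to 405 nm absorbance ratio. Arachidonic acid at 40 uM (final) was turned over for 30 min at room temperature by 150 nM human 12hLO, pH 7.0 Hepes buffer, after 15 min compound preincubation.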
# % is set by controls: 0 for no effect and ±100 for the full control effect; potency is the fitted concentration of half-maximal effect.
Compound,Potency,"activity change, negative = inhibition"
Cn1c2ccccc2c2ccc3c(c21)C(=O)C=CC3=O,"inconclusive: 5.62 µM [inhibitor, full curve, poor fit]",
Cc1ccc(C(=O)N2CCC(c3nn(-c4ccc(Cl)cc4)c(=O)[nH]3)CC2)cc1,active: 25.1 µM,
CCNc1nc2c(c(=O)[nH]c(=O)n2C)n1Cc1ccccc1Cl,"inconclusive: 39.8 µM [inhibitor, single point]",
NNc1nc2c(-c3cccc(C(F)(F)F)c3)nnn2c2ccccc12,,inactive: 5.5%
COc1ccc(Br)cc1CN1CCCC(C(=O)N(C)Cc2ccccc2)C1 (stereo unspecified),"inconclusive: 2.82 µM [inhibitor, full curve, poor fit]",
CCCCCC(=O)N1C[C@H](n2cc(COC(=O)c3ccccc3)nn2)[C@@H](O)C[C@@H]1c1ccc(Cl)cc1,"inconclusive: 100 µM [inhibitor, partial curve, poor fit]",
COc1cc(NC(C)CCc2ccccc2)cc(OC)c1OC (stereo unspecified),"inconclusive: 39.8 µM [inhibitor, partial curve, poor fit]",
Cc1nc2c(O)c3c(c(O)c2nc1C)C1C=CC3CC1,"inconclusive: 11.2 µM [inhibitor, partial curve, poor fit]",
CC(C)Oc1ccc(CNC(=O)c2ncoc2-c2cccs2)cc1,,inactive: 8.54%
COCCn1c(C2CC(=O)N(c3cc(Cl)ccc3OC)C2)nc2ccccc21 (stereo unspecified),,inactive: -3.99%
CCN(Cc1cccs1)C(=O)NC(C)c1cccc(Br)c1 (stereo unspecified),,inactive: 20.1%
CCCCCn1c2c(c(=N)c3ccccc31)CCC2,"inconclusive: 100 µM [inhibitor, partial curve, poor fit]",
CCOC(=O)c1cn[nH]c1S(=O)(=O)N1CCCCCCC1,"inconclusive: 5.62 µM [inhibitor, full curve, poor fit]",
COc1ccc(C(=O)CN2CCN(c3ncccn3)CC2)cc1,"inconclusive: 2.51 µM [inhibitor, full curve, poor fit]",
NC(=O)CCN(C(=O)c1ccc(C(F)(F)F)cc1)c1ccc(F)cc1,,inactive: -18%
CNc1nc2ccccc2n1CC(=O)c1ccccc1,,inactive: -7.81%
Cn1cc(Br)c(C(=O)Nc2sc3c(c2C(N)=O)CCCC3)n1,,inactive: -1.96%
CC(C)c1ccc2oc(=O)cc(CN3CCCCC3)c2c1,"inconclusive: 44.7 µM [inhibitor, single point]",
CC(C)(C)c1[nH]nc2c1[C@@H](c1ccccc1C(F)(F)F)C(C#N)=C(N)O2,"inconclusive: 79.4 µM [inhibitor, single point]",
C#CCN1CCC(C(=O)NC2CCN(C(=O)C3CCCCC3)CC2)CC1,,inactive: -21.1%
O=[N+]([O-])c1cc(C(F)(F)F)ccc1Sc1ccc2ccccc2n1,"inconclusive: 8.91 µM [inhibitor, partial curve, poor fit]",
COc1cc(-c2nc3ccc(C)cn3c2Nc2ccc3c(c2)OCO3)cc(OC)c1O,"inconclusive: 79.4 µM [inhibitor, partial curve, poor fit]",

# Ordered by formula weight (low to high): part of the list above.
Compound,Potency,"activity change, negative = inhibition"
CCCCCn1c2c(c(=N)c3ccccc31)CCC2,"inconclusive: 100 µM [inhibitor, partial curve, poor fit]",
Cn1c2ccccc2c2ccc3c(c21)C(=O)C=CC3=O,"inconclusive: 5.62 µM [inhibitor, full curve, poor fit]",
CNc1nc2ccccc2n1CC(=O)c1ccccc1,,inactive: -7.81%
Cc1nc2c(O)c3c(c(O)c2nc1C)C1C=CC3CC1,"inconclusive: 11.2 µM [inhibitor, partial curve, poor fit]",
CC(C)c1ccc2oc(=O)cc(CN3CCCCC3)c2c1,"inconclusive: 44.7 µM [inhibitor, single point]",
COc1ccc(C(=O)CN2CCN(c3ncccn3)CC2)cc1,"inconclusive: 2.51 µM [inhibitor, full curve, poor fit]",
CCOC(=O)c1cn[nH]c1S(=O)(=O)N1CCCCCCC1,"inconclusive: 5.62 µM [inhibitor, full curve, poor fit]",
CCNc1nc2c(c(=O)[nH]c(=O)n2C)n1Cc1ccccc1Cl,"inconclusive: 39.8 µM [inhibitor, single point]",
CC(C)Oc1ccc(CNC(=O)c2ncoc2-c2cccs2)cc1,,inactive: 8.54%
NNc1nc2c(-c3cccc(C(F)(F)F)c3)nnn2c2ccccc12,,inactive: 5.5%
O=[N+]([O-])c1cc(C(F)(F)F)ccc1Sc1ccc2ccccc2n1,"inconclusive: 8.91 µM [inhibitor, partial curve, poor fit]",
NC(=O)CCN(C(=O)c1ccc(C(F)(F)F)cc1)c1ccc(F)cc1,,inactive: -18%
C#CCN1CCC(C(=O)NC2CCN(C(=O)C3CCCCC3)CC2)CC1,,inactive: -21.1%
CCN(Cc1cccs1)C(=O)NC(C)c1cccc(Br)c1 (stereo unspecified),,inactive: 20.1%
Cn1cc(Br)c(C(=O)Nc2sc3c(c2C(N)=O)CCCC3)n1,,inactive: -1.96%
Cc1ccc(C(=O)N2CCC(c3nn(-c4ccc(Cl)cc4)c(=O)[nH]3)CC2)cc1,active: 25.1 µM,
COCCn1c(C2CC(=O)N(c3cc(Cl)ccc3OC)C2)nc2ccccc21 (stereo unspecified),,inactive: -3.99%
COc1cc(-c2nc3ccc(C)cn3c2Nc2ccc3c(c2)OCO3)cc(OC)c1O,"inconclusive: 79.4 µM [inhibitor, partial curve, poor fit]",
COc1ccc(Br)cc1CN1CCCC(C(=O)N(C)Cc2ccccc2)C1 (stereo unspecified),"inconclusive: 2.82 µM [inhibitor, full curve, poor fit]",
CCCCCC(=O)N1C[C@H](n2cc(COC(=O)c3ccccc3)nn2)[C@@H](O)C[C@@H]1c1ccc(Cl)cc1,"inconclusive: 100 µM [inhibitor, partial curve, poor fit]",

# Following part

Compound,Potency,"activity change, negative = inhibition"
COc1ccc(CN2C[C@H]3CN(S(=O)(=O)c4ccc(C)cc4)CCN3C2=O)cc1,"inconclusive: 12.6 µM [inhibitor, full curve]",
N#C/C(=C/c1ccc2ncccc2c1)c1nc2ccccc2[nH]1,"inconclusive: 50.1 µM [inhibitor, partial curve, poor fit]",
CCN1CCC2(CC1)C(C#N)=C(N)Oc1c2sc2nc(C)cc(C)c12,"inconclusive: 35.5 µM [inhibitor, partial curve, poor fit]",
O=C(CCc1nc2ccccc2s1)NCCc1noc(-c2ccncc2)n1,"inconclusive: 89.1 µM [inhibitor, single point]",
Clc1ccc(-c2cnc3n2C[C@H](CNCc2ccc4c(c2)OCO4)OC3)cc1,active: 39.8 µM,
O=C(CSc1nc2ccc(Cl)cc2[nH]1)Nc1ccc(S(=O)(=O)N2CCCCC2)cc1,,inactive: -25.7%
CC(=O)N(C1=C(Cl)C(=O)c2ccccc2C1=O)c1ccc(C(=O)O)cc1,"inconclusive: 22.4 µM [inhibitor, partial curve]",
COc1ccccc1NC(=O)CSC1=Nc2ccccc2C2=NC(CC(=O)NCc3ccc4c(c3)OCO4)C(=O)N12 (stereo unspecified),"inconclusive: 63.1 µM [inhibitor, partial curve, poor fit]",
O=C1NC[C@H](Cc2ccccc2)N(CCc2cccc(F)c2)C1=O,,inactive: -3.51%
O=C(NCCOCCn1c(=O)oc2ccccc21)Nc1cccc(Cl)c1,"inconclusive: 89.1 µM [inhibitor, partial curve, poor fit]",
COc1cc(NC(=O)CCc2c(C)c3ccc(C)cc3oc2=O)cc(OC)c1OC,"inconclusive: 50.1 µM [inhibitor, single point]",
CSc1cccc(NC(=O)CSc2ccc(Cl)cc2)c1,"inconclusive: 28.2 µM [inhibitor, single point]",
O=C(Cn1c(NCCCO)nc2ccccc21)c1ccc(Cl)cc1Cl,,inactive: -15.8%
Cc1ccccc1CNC(=O)CCC[C@@H]1[C@H]2CCCN3CCC[C@@H](CN1Cc1cccnc1)[C@@H]23,,inactive: 15.6%
Cc1[nH]c2ccccc2c1C(c1cccc(F)c1)c1c(C)[nH]c2ccccc12,"inconclusive: 39.8 µM [inhibitor, partial curve, poor fit]",
CC(C)(C)OC(=O)NCCc1nnc(SCc2ccc(Cl)cc2)o1,,inactive: -7.81%
CC(C)=CC1C(C(=O)NC2CCCCC2C(F)(F)F)C1(C)C (stereo unspecified),"inconclusive: 178 µM [inhibitor, partial curve, poor fit]",
CCN(CC)CC(C)OC(=O)c1cc(OC)c(OC)c(OC)c1 (stereo unspecified),"inconclusive: 20 µM [inhibitor, full curve, poor fit]",
COc1ccc(/C=N/OCc2cc(Cl)c3c(c2)OCO3)cc1OC,"inconclusive: 56.2 µM [inhibitor, partial curve, poor fit]",
C[C@H](CO)N1C[C@H](C)[C@H](CN(C)S(=O)(=O)c2cn(C)cn2)Oc2ccc(NC(=O)Nc3ccc(C(F)(F)F)cc3)cc2CC1=O,"inconclusive: 112 µM [inhibitor, single point]",
O=C(NC1CCCCC1)C(c1ccc(F)cc1)N(C(=O)c1csnn1)C1CCCC1 (stereo unspecified),"inconclusive: 50.1 µM [inhibitor, partial curve, poor fit]",
CCOC(=O)C1CCN(C(=O)c2cc(C)n(C(C)(C)C)n2)CC1,"inconclusive: 112 µM [inhibitor, single point]",

Compound,Potency,"activity change, negative = inhibition"
O=C(CCS(=O)(=O)c1cc2c3c(c1)CCN3C(=O)CC2)Nc1cccc(Br)c1,active: 44.7 µM,
Cc1ccc(N=c2ssnc2Cl)cc1,active: 1.58 µM,
COCCOc1ccc(C(=O)/C=C/c2cc(OC)c(OC)c(OC)c2)cc1,,inactive: 10.2%
COP(=O)(OC)c1nc(Cc2ccc(Cl)cc2)oc1NCc1ccc2c(c1)OCO2,"inconclusive: 0.501 µM [inhibitor, full curve, poor fit]",
COc1ccc(C(CC(=O)Nc2cc(OC)c(OC)c(OC)c2)N2Cc3ccccc3C2=O)cc1 (stereo unspecified),,inconclusive: -37.7% [inhibitor]
O=C(c1cc(C2CC2)nn1-c1ccccc1)N1CCN(Cc2ccccc2F)CC1,inactive,
CCCCn1c(N)c(N(CC(C)C)C(=O)COC(=O)c2ccccc2NCCO)c(=O)[nH]c1=O,"inconclusive: 56.2 µM [inhibitor, partial curve, poor fit]",
Cc1snc(S(=O)(=O)/C(C#N)=N/Nc2ccc(C(F)(F)F)cc2)c1C#N,"inconclusive: 35.5 µM [inhibitor, partial curve, poor fit]",
CCc1ccc(NC(=O)CSc2nc(=O)n(Cc3ccncc3)c3c2CCC3)cc1,"inconclusive: 126 µM [inhibitor, partial curve, poor fit]",
Cn1c(=O)c2cc(NC(=O)NCc3ccccc3)ccc2n1C/C=C/c1ccccc1,"inconclusive: 35.5 µM [inhibitor, partial curve, poor fit]",
Cc1nc2sc3c(c2c(-c2ccc(Cl)cc2)c1C(N)=O)CCC3,"inconclusive: 44.7 µM [inhibitor, partial curve, poor fit]",
O=C(COc1ccccc1)OCC(=O)c1ccc2c(c1)OCO2,"inconclusive: 39.8 µM [inhibitor, partial curve, poor fit]",
O=c1c2ccccc2cnn1Cc1n[nH]c(=S)n1-c1ccc(F)cc1,"inconclusive: 50.1 µM [inhibitor, partial curve, poor fit]",
O=C(c1ccc(Cl)cc1)N1CC2(Cc3ccccc3NC2=O)C1,,inactive: 4.62% [at 6.33 µM]
CCN1CCN(CCCNC(=O)Cn2c(-c3cccs3)cc3cc(F)ccc32)CC1,,inactive: 1.23%
CC(C(=O)NCc1ccccc1)N1C(=O)C2CC=C(Cl)CC2C1=O (stereo unspecified),"inconclusive: 28.2 µM [inhibitor, single point]",
Nc1nccc(N2CCCCC2)n1,"inconclusive: 28.2 µM [inhibitor, partial curve]",
CCOC(=O)N1CCc2c(sc(NCc3cccs3)c2C(=O)Nc2ccc(OC)cc2OC)C1,"inconclusive: 5.62 µM [inhibitor, full curve, poor fit]",
CC(C)NC(=O)C(=O)NC1CC(C)(C)NC(C)(C)C1,,inactive: -22.9%
CCCCN(C)CCNC(=O)CN1C(=O)CSc2ccc(S(=O)(=O)N3CCCCC3)cc21,"inconclusive: 50.1 µM [inhibitor, single point]",
CCOC(=O)c1cnc2ccccc2c1N(C)CC(=O)N(C)C,,inactive: 4.88%
O=C(Nc1nccs1)C1CCCN1S(=O)(=O)c1ccc(F)cc1 (stereo unspecified),"inconclusive: 39.8 µM [inhibitor, partial curve, poor fit]",

# Reprinted at random: 2 records from the list.
Compound,Potency,"activity change, negative = inhibition"
CC(C(=O)NCc1ccccc1)N1C(=O)C2CC=C(Cl)CC2C1=O (stereo unspecified),"inconclusive: 28.2 µM [inhibitor, single point]",
CCCCN(C)CCNC(=O)CN1C(=O)CSc2ccc(S(=O)(=O)N3CCCCC3)cc21,"inconclusive: 50.1 µM [inhibitor, single point]",
